# Reference: patent US10668048B2, “Compounds for inhibiting bacterial growth via phosphatidylglycerol binding” (Wichita State University, priority 2016, dated 2020)
# Some entries share one result that the patent states for a list of compounds. At least one structure is not confirmed: it was looked up by name or label, or the drawing left a doubt. Some ranges recur; such a range may be that of the whole group of compounds.
# Columns and labels:
# [1] = Liptin-PG binding in solution (ITC and/or 1H NMR titration); details: for Ka: NMR titrations, DMF/5% CHCl3, 1:1 binding stoichiometry; for association constants: in organic solution
# Experimental: The lipid binding ability of liptins 1-3 (FIG. 2A) have been investigated in solution using isothermal titration calorimetry (ITC) and/or ^1H NMR. Stoichiometry of binding was accomplished with Job plots using ^1H NMR. […] The use of organic solvents allowed the determination of binding motif using ^1H NMR.
# Liptins 1b, 1e, 2c, 2d, 3a, 3c in DMF/5% CHCl3; 3e in 50% DMSO, 45% CHCl3, 5% CH3OH.
# Liptins 1h and 1i 40% DMSO, 60% CHCl3, 3f in 20% DMSO, 80% CHCl3.
# [2] = Carboxy-fluorescein efflux from PE/PG liposomes; type: biochemical; details: 1.5 μM, quickly after addition of the liptin
# Experimental: Liptin 3e causes membrane leakage when it binds to PG in a membrane, as evidenced by the efflux of fluorescent carboxy-fluorescein from model lipid vesicles of 80% PE/20% PG (the approximate lipid content models E. coli's plasma membrane), shown in FIG. 19A. […] Not shown is the effect of the bee AMP melittin, which forms pores in membranes at 2.5 μM concentrations. Upon addition of melittin within a few minutes of addition the efflux is 100%.
# Liptins 3f-h also cause membrane leakage when they bind to PG in a membrane, as evidenced by the efflux of fluorescent carboxy-fluorescein from model lipid vesicles of 80% PE/20% PG (the lipid content models E. coli's plasma membrane), shown in FIG. 19B. The circle bottom line data set is the control without liptin. […] Y-axis: % Efflux; X-axis: Time in minutes.
# This greater efflux activity may well translate to lower MICs of these two compounds relative to liptin 3e, and may well change the liptin activity from bacteriostatic to bactericidal. […]
structure (smiles),measurement,setting,value
Cc1ccc2c(c1)CNCCCNCc1cc(C)ccc1OCCCCCO2 [Liptin 1b],Ka,[1],2-2.5×10^2 M^−1
Cc1ccc2c(c1)CNCCCCNCc1cc(C)ccc1OCCCCO2 [Liptin 1e],Ka,[1],2-2.5×10^2 M^−1
O=C(NCCOCc1ccccc1)Nc1ccccc1-c1c2nc(c(-c3ccccc3NC(=O)NCCOCc3ccccc3)c3ccc([nH]3)c(-c3ccccc3NC(=O)NCCOCc3ccccc3)c3nc(c(-c4ccccc4NC(=O)NCCOCc4ccccc4)c4ccc1[nH]4)C=C3)C=C2 [Liptin 3a],association constants,[1],2-4×10^3 M^−1
CCOCCOCCOCCNC(=O)Nc1ccccc1-c1c2nc(c(-c3ccccc3NC(=O)NCCOCCOCCOCC)c3ccc([nH]3)c(-c3ccccc3NC(=O)NCCOCCOCCOCC)c3nc(c(-c4ccccc4NC(=O)NCCOCCOCCOCC)c4ccc1[nH]4)C=C3)C=C2 [Liptin 3c],association constants,[1],2-4×10^3 M^−1
NCC(=O)Nc1ccccc1-c1c2nc(c(-c3ccccc3NC(=O)CN)c3ccc([nH]3)c(-c3ccccc3NC(=O)CN)c3nc(c(-c4ccccc4NC(=O)CN)c4ccc1[nH]4)C=C3)C=C2.O=C(O)C(F)(F)F.O=C(O)C(F)(F)F.O=C(O)C(F)(F)F.O=C(O)C(F)(F)F [Liptin 3e],association constants,[1],2-4×10^3 M^−1
CCCNCC(=O)Nc1ccccc1-c1c2nc(c(-c3ccccc3NC(=O)CNCCC)c3ccc([nH]3)c(-c3ccccc3NC(=O)CNCCC)c3nc(c(-c4ccccc4NC(=O)CNCCC)c4ccc1[nH]4)C=C3)C=C2 [Liptin 3g],dye leakage (efflux),[2],60-80%
CCCCCCNCC(=O)Nc1ccccc1-c1c2nc(c(-c3ccccc3NC(=O)CNCCCCCC)c3ccc([nH]3)c(-c3ccccc3NC(=O)CNCCCCCC)c3nc(c(-c4ccccc4NC(=O)CNCCCCCC)c4ccc1[nH]4)C=C3)C=C2 [Liptin 3h],dye leakage (efflux),[2],60-80%
